Reference: PubChem BioAssay AID720697 (Broad Institute, 2013)
This list was built around the results that the source calls inconclusive (neither active nor inactive); the mix of calls is not that of the screen. Active and inactive are the calls of the source.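 The calls were made as follows: active = signal loss with fitted half-maximal concentration at or below twice the top valid tested dose in every test run; inconclusive = runs disagree, flat 30 to 70% signal loss, or poor fit; inactive = all runs flat, opposite direction, or potency beyond limit.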

Experiment: general mammalian cell viability loss – inhibitor set, cherry-pick, set 2, cytotoxicity control for miR-122 modulator project, dose response (AID 720697);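 also: 0% = median of neutral control wells and -100% = MG132 positive control wells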
Conditions: HEK293T viability, CellTiter-Glo luminescence, 48 h; at 26 µM (top of the series) unless noted

Q: For CC(=O)N(C)C[C@H]1[C@@H](c2ccc(-c3ccc(F)cc3)cc2)[C@@H](CO)N1C(C)=O, which activity change, negative = cytotoxicity is on record?
A: inconclusive: -98.5%

Q: With COCCNC(=O)C[C@H]1CC[C@@H]2[C@@H](COc3ccc(NS(=O)(=O)c4ccc(Cl)cc4)cc3C(=O)N2C)O1 as the compound, how does the activity change, negative = cytotoxicity read?
A: inactive: -6.55%

Q: Which activity change, negative = cytotoxicity does the source give for C/C=C/c1ccc([C@@H]2[C@@H](CO)N[C@@H]2CN(CC(C)C)C(=O)c2ccccn2)cc1 here?
A: inconclusive: -53.5%

Q: For C[C@@H]1CN([C@@H](C)CO)S(=O)(=O)c2ccc(C#Cc3ccccc3F)cc2O[C@@H]1CN(C)C(=O)c1ccc2c(c1)OCO2, which activity change, negative = cytotoxicity is on record?
A: inconclusive: -55.7%

Q: Which activity change, negative = cytotoxicity does the source give for CN1C(=O)c2cc(NC(=O)c3ccno3)ccc2OC[C@H]2O[C@@H](CC(=O)NCC3CC3)CC[C@@H]21 here?
A: inconclusive: -27.9%

Q: With O=C(Nc1ccccc1F)N1C[C@H]2[C@@H](c3ccccc31)[C@@H](CO)N2C(=O)C1CC1 as the compound, how does the activity change, negative = cytotoxicity read?
A: inactive: -34.8%

Q: With CN1C(=O)c2cc(NC(=O)c3cccc(C(F)(F)F)c3)ccc2OC[C@H]2O[C@H](CC(=O)NCCN3CCCC3)CC[C@H]21 as the compound, how does the activity change, negative = cytotoxicity read?
A: inconclusive: -41.9%

Q: Which activity change, negative = cytotoxicity does the source give for CN1C(=O)c2cc(NC(=O)c3cccc(F)c3)ccc2OC[C@H]2O[C@H](CC(=O)NC3CCC3)CC[C@@H]21 here?
A: inconclusive: -36%

Q: For CCc1ccccc1NC(=O)CN(C)C(=O)Cn1ncc(Cl)c(Cl)c1=O, which activity change, negative = cytotoxicity is on record?
A: inactive: -65.2% [at 6 µM]

Q: For c1cnc(N2CCN(Cc3c[nH]c4ccccc34)CC2)nc1, which activity change, negative = cytotoxicity is on record?
A: inactive: 6.09%

Q: With CN1C(=O)c2cc(NC(=O)c3ccc(C(F)(F)F)cc3)ccc2OC[C@@H]2O[C@@H](CC(=O)NCc3ccc4c(c3)OCO4)CC[C@H]21 as the compound, how does the activity change, negative = cytotoxicity read?
A: inconclusive: -17.6%

Q: With COc1ccc(NC(=O)COC(=O)CCCc2c[nH]c3ccccc23)cc1 as the compound, how does the activity change, negative = cytotoxicity read?
A: inactive: 66.8%

Q: For CN(C)CCCNC(=O)C[C@@H]1CC[C@H]2[C@H](COc3ccc(NC(=O)c4cccc(F)c4)cc3C(=O)N2C)O1, which activity change, negative = cytotoxicity is on record?
A: inconclusive: -37.8% [at 23.5 µM]

Q: Which activity change, negative = cytotoxicity does the source give for COCC(=O)NC[C@@H]1[C@H](c2ccc(C3=CCCC3)cc2)[C@@H](CO)N1C(=O)C1CC1 here?
A: inconclusive: -45% [at 23.5 µM]

Q: For Cc1cc(C)n(C(=O)Cn2nc(C)c(Br)c2C)n1, which activity change, negative = cytotoxicity is on record?
A: inactive: 1.02%

Q: Which activity change, negative = cytotoxicity does the source give for CN1C(=O)c2cc(NC(=O)c3ccccc3F)ccc2OC[C@H]2O[C@@H](CC(=O)NCc3ccc4c(c3)OCO4)CC[C@@H]21 here?
A: inconclusive: 0.67%

Q: Which activity change, negative = cytotoxicity does the source give for COCCN(C[C@H]1[C@H](c2ccccc2)[C@@H](CO)N1C(=O)C1CCC1)C(C)=O here?
A: inactive: 162% [at 23.5 µM]

Q: For C[C@H]1CN([C@@H](C)CO)S(=O)(=O)c2ccc(-c3ccccc3F)cc2O[C@@H]1CN(C)Cc1cccnc1, which activity change, negative = cytotoxicity is on record?
A: inconclusive: -74.6%

Q: With O=C(C1CC1)N1C[C@H]2[C@@H](c3ccccc31)[C@H](CO)N2C(=O)c1ccccc1F as the compound, how does the activity change, negative = cytotoxicity read?
A: inconclusive: -102% [at 23.5 µM]

Q: With CCOc1ccc(-c2nnc(SCC(=O)Nc3ccc4c(c3)c3ccccc3n4CC)n2N)cc1 as the compound, how does the activity change, negative = cytotoxicity read?
A: inconclusive: -13% [at 6 µM]

Q: With CNC(=O)C[C@@H]1CC[C@H]2[C@@H](COc3ccc(NC(=O)C(C)C)cc3C(=O)N2C)O1 as the compound, how does the activity change, negative = cytotoxicity read?
A: inactive: 52.1%

Q: For OC[C@H]1[C@@H](c2ccccc2)[C@@H](CNCC2CCC2)N1CC1CC1, which activity change, negative = cytotoxicity is on record?
A: inconclusive: 89.7%

Q: With CNC(=O)C[C@H]1CC[C@@H]2[C@@H](COc3ccc(NC(=O)Nc4ccc(Cl)cc4)cc3C(=O)N2C)O1 as the compound, how does the activity change, negative = cytotoxicity read?
A: inactive: 21% [at 23.5 µM]

Q: With CCC(=O)N1[C@H](CO)[C@H](c2ccccc2)[C@H]1CNC(=O)CN1CCOCC1 as the compound, how does the activity change, negative = cytotoxicity read?
A: inconclusive: -37.3%

Q: Which activity change, negative = cytotoxicity does the source give for COCC(=O)N(C)C[C@H]1Oc2cc(-c3ccc(C#N)cc3)ccc2S(=O)(=O)N([C@@H](C)CO)C[C@H]1C here?
A: inconclusive: -31.5%
